Experimental data reported in article PMC5264588, “ER residency of the ceramide phosphoethanolamine synthase SMSr relies on homotypic oligomerization mediated by its SAM domain” (Scientific Reports, 2017).
These are yes or no findings as the source states them, for the method shown. For some assays here: Binding seen in cells or lysates may run through a third protein. Some results given as binding are weak or reduced against the parent protein; the word gives no strength. Where a sequence is shown, tags or fusion partners need not be part of it.

B8: V5/His6-tagged SMSr (enzyme, human, UniProt Q96LT4 1-415, looked up)
chain: MAGPNQLCIRRWTTKHVAVWLKDEGFFEYVDILCNKHRLDGITLLTLTEYDLRSPPLEIKVLGDIKRLMLSVRKLQKIHIDVLEEMGYNSDSPMGSMTPFISALQSTDWLCNGELSHDCDGPITDLNSDQYQYMNGKNKHSVRRLDPEYWKTILSCIYVFIVFGFTSFIMVIVHERVPDMQTYPPLPDIFLDSVPRIPWAFAMTEVCGMILCYIWLLVLLLHKHRSILLRRLCSLMGTVFLLRCFTMFVTSLSVPGQHLQCTGKIYGSVWEKLHRAFAIWSGFGMTLTGVHTCGDYMFSGHTVVLTMLNFFVTEYTPRSWNFLHTLSWVLNLFGIFFILAAHEHYSIDVFIAFYITTRLFLYYHTLANTRAYQQSRRARIWFPMFSFFECNVNGTVPNEYCWPFSKPAIMKRLIG
notes: SMSr (SAMD8), ceramide phosphoethanolamine synthase, human, UniProt Q96LT4; the cDNA was PCR amplified and cloned with a C-terminal V5/His6 tag; also called SMSr-V5; SAMD8; source: HeLa, transfected (pcDNA3.1/V5-His TOPO), in detergent extract; not shown: V5, C-terminal, kept; His6, C-terminal, kept

What was measured:
scGFP-DGKδ-SAM (human) = scGFP-DGKδ-SAM (human) (UniProt Q16760); test: native gel or EMSA; bacterial lysates with scGFP fusions of SAM domains run on a native gel (27.3 mM Tris-HCl, 192 mM glycine, 4 °C), in-gel GFP fluorescence; lysis buffer with 1 M NaCl, 1 mM TCEP
[1] = target: T1, V5/His6-tagged SMSr^L62E/G63D/K66E (SMSr^OD) (human) (UniProt Q96LT4); test: co-IP; HeLa (wild-type or SMSr-/-) cells co-transfected with V5/His6- and HA-tagged constructs, solubilized with detergent with 10 mM NEM; anti-V5 immunoprecipitation, immunoblot with anti-V5 and anti-HA
T1 sequence: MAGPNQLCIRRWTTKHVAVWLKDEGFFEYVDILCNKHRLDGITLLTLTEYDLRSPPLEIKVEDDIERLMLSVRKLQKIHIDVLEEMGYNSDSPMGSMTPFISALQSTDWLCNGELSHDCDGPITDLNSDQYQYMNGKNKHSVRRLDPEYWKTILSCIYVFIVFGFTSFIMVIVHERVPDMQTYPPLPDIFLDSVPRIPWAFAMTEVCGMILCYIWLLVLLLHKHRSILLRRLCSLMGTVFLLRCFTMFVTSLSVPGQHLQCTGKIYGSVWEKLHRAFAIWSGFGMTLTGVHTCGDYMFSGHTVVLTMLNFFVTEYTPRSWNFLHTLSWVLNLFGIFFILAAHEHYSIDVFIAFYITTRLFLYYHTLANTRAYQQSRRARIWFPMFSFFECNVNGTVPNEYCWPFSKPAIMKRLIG

[2] = target: T2, V5/His6-tagged SMSr^D348E (human) (UniProt Q96LT4); test: as above
T2 sequence: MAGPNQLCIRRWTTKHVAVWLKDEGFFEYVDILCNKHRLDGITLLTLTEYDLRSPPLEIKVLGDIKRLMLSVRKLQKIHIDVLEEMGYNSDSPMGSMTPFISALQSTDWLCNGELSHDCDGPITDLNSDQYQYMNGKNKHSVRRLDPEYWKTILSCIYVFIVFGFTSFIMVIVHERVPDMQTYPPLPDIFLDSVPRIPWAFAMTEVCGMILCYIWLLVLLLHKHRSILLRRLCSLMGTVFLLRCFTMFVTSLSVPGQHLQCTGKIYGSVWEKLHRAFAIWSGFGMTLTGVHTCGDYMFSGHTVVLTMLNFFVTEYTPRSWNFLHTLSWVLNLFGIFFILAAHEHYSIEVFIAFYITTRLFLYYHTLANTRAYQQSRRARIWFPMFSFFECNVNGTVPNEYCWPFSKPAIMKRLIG

[3] = target: V5-tagged SMSr^L62E (human) (UniProt Q96LT4); test: SDS-resistant oligomers on SDS-PAGE of affinity-purified protein; HeLa cells transfected with one V5(/His6)-tagged construct; anti-V5 immunoprecipitates or Ni-NTA eluates, non-reducing SDS-PAGE, anti-V5 immunoblot; no cross-linker; oligomers mostly lost with 10 mM NEM in lysis or 100 mM DTT
[4] = target: V5-tagged SMSr^G63D (human) (UniProt Q96LT4); test: as above
[5] = target: V5-tagged SMSr^K66E (human) (UniProt Q96LT4); test: as above
scGFP-SMSr-SAM (human) = scGFP-SMSr-SAM (human) (UniProt Q96LT4); test: native gel or EMSA; bacterial lysates with scGFP fusions of SAM domains run on a native gel (27.3 mM Tris-HCl, 192 mM glycine, 4 °C), in-gel GFP fluorescence; lysis buffer with 1 M NaCl, 1 mM TCEP
V5/His6-tagged SMSr = target: B8; test: SDS-resistant oligomers on SDS-PAGE of affinity-purified protein; HeLa cells with V5/His6-tagged SMSr treated with 50 μM curcumin (1-6 h), lysed with detergent and 10 mM NEM; anti-V5 immunoprecipitates or Ni-NTA eluates, reducing SDS-PAGE, anti-V5 immunoblot; also with zVAD-fmk, CERT over-expression, myriocin, fumonisin B1, HPA-12 or BAPTA-AM

B1: scGFP-DGKδ-SAM (domain or fragment, UniProt Q16760 1145-1208)
chain: WGTEEVAAWLEHLSLCEYKDIFTRHDIRGSELLHLERRDLKDLGVTKVGHMKRILCGIKELSRS
scGFP-DGKδ-SAM (human)
  binding: binds

B2: HA-tagged SMSr^L62E/G63D/K66E (SMSr^OD) (enzyme, human, UniProt Q96LT4 1-415, looked up)
chain: MAGPNQLCIRRWTTKHVAVWLKDEGFFEYVDILCNKHRLDGITLLTLTEYDLRSPPLEIKVEDDIERLMLSVRKLQKIHIDVLEEMGYNSDSPMGSMTPFISALQSTDWLCNGELSHDCDGPITDLNSDQYQYMNGKNKHSVRRLDPEYWKTILSCIYVFIVFGFTSFIMVIVHERVPDMQTYPPLPDIFLDSVPRIPWAFAMTEVCGMILCYIWLLVLLLHKHRSILLRRLCSLMGTVFLLRCFTMFVTSLSVPGQHLQCTGKIYGSVWEKLHRAFAIWSGFGMTLTGVHTCGDYMFSGHTVVLTMLNFFVTEYTPRSWNFLHTLSWVLNLFGIFFILAAHEHYSIDVFIAFYITTRLFLYYHTLANTRAYQQSRRARIWFPMFSFFECNVNGTVPNEYCWPFSKPAIMKRLIG
notes: SMSr (SAMD8), human, UniProt Q96LT4, with L62E, G63D and K66E; also called oligomerization-defective triple mutant; source: HeLa (wild-type or SMSr-/-), transfected, in detergent extract; not shown: HA, C-terminal, kept
[1]
  binding: binds

B3: HA-tagged SMSr^D348E (enzyme, human, UniProt Q96LT4 1-415, looked up)
chain: MAGPNQLCIRRWTTKHVAVWLKDEGFFEYVDILCNKHRLDGITLLTLTEYDLRSPPLEIKVLGDIKRLMLSVRKLQKIHIDVLEEMGYNSDSPMGSMTPFISALQSTDWLCNGELSHDCDGPITDLNSDQYQYMNGKNKHSVRRLDPEYWKTILSCIYVFIVFGFTSFIMVIVHERVPDMQTYPPLPDIFLDSVPRIPWAFAMTEVCGMILCYIWLLVLLLHKHRSILLRRLCSLMGTVFLLRCFTMFVTSLSVPGQHLQCTGKIYGSVWEKLHRAFAIWSGFGMTLTGVHTCGDYMFSGHTVVLTMLNFFVTEYTPRSWNFLHTLSWVLNLFGIFFILAAHEHYSIEVFIAFYITTRLFLYYHTLANTRAYQQSRRARIWFPMFSFFECNVNGTVPNEYCWPFSKPAIMKRLIG
notes: SMSr (SAMD8), human, UniProt Q96LT4, with D348E; also called enzyme-dead SMSr; source: SMSr-/- HeLa, transfected, in detergent extract; not shown: HA, C-terminal, kept
[2]
  binding: binds

B4: V5-tagged SMSr^L62E (enzyme, UniProt Q96LT4 1-415)
chain: MAGPNQLCIRRWTTKHVAVWLKDEGFFEYVDILCNKHRLDGITLLTLTEYDLRSPPLEIKVEGDIKRLMLSVRKLQKIHIDVLEEMGYNSDSPMGSMTPFISALQSTDWLCNGELSHDCDGPITDLNSDQYQYMNGKNKHSVRRLDPEYWKTILSCIYVFIVFGFTSFIMVIVHERVPDMQTYPPLPDIFLDSVPRIPWAFAMTEVCGMILCYIWLLVLLLHKHRSILLRRLCSLMGTVFLLRCFTMFVTSLSVPGQHLQCTGKIYGSVWEKLHRAFAIWSGFGMTLTGVHTCGDYMFSGHTVVLTMLNFFVTEYTPRSWNFLHTLSWVLNLFGIFFILAAHEHYSIDVFIAFYITTRLFLYYHTLANTRAYQQSRRARIWFPMFSFFECNVNGTVPNEYCWPFSKPAIMKRLIG
[3]
  binding: binds

B5: V5-tagged SMSr^G63D (enzyme, UniProt Q96LT4 1-415)
chain: MAGPNQLCIRRWTTKHVAVWLKDEGFFEYVDILCNKHRLDGITLLTLTEYDLRSPPLEIKVLDDIKRLMLSVRKLQKIHIDVLEEMGYNSDSPMGSMTPFISALQSTDWLCNGELSHDCDGPITDLNSDQYQYMNGKNKHSVRRLDPEYWKTILSCIYVFIVFGFTSFIMVIVHERVPDMQTYPPLPDIFLDSVPRIPWAFAMTEVCGMILCYIWLLVLLLHKHRSILLRRLCSLMGTVFLLRCFTMFVTSLSVPGQHLQCTGKIYGSVWEKLHRAFAIWSGFGMTLTGVHTCGDYMFSGHTVVLTMLNFFVTEYTPRSWNFLHTLSWVLNLFGIFFILAAHEHYSIDVFIAFYITTRLFLYYHTLANTRAYQQSRRARIWFPMFSFFECNVNGTVPNEYCWPFSKPAIMKRLIG
[4]
  binding: binds

B6: V5-tagged SMSr^K66E (enzyme, UniProt Q96LT4 1-415)
chain: MAGPNQLCIRRWTTKHVAVWLKDEGFFEYVDILCNKHRLDGITLLTLTEYDLRSPPLEIKVLGDIERLMLSVRKLQKIHIDVLEEMGYNSDSPMGSMTPFISALQSTDWLCNGELSHDCDGPITDLNSDQYQYMNGKNKHSVRRLDPEYWKTILSCIYVFIVFGFTSFIMVIVHERVPDMQTYPPLPDIFLDSVPRIPWAFAMTEVCGMILCYIWLLVLLLHKHRSILLRRLCSLMGTVFLLRCFTMFVTSLSVPGQHLQCTGKIYGSVWEKLHRAFAIWSGFGMTLTGVHTCGDYMFSGHTVVLTMLNFFVTEYTPRSWNFLHTLSWVLNLFGIFFILAAHEHYSIDVFIAFYITTRLFLYYHTLANTRAYQQSRRARIWFPMFSFFECNVNGTVPNEYCWPFSKPAIMKRLIG
[5]
  binding: binds

B7: scGFP-SMSr-SAM (domain or fragment, UniProt Q96LT4 12-78)
chain: WTTKHVAVWLKDEGFFEYVDILCNKHRLDGITLLTLTEYDLRSPPLEIKVLGDIKRLMLSVRKLQKI
scGFP-SMSr-SAM (human)
  binding: binds

## B8
V5/His6-tagged SMSr
  binding: binds
